The source of these data is PubChem BioAssay AID445 (National Center for Advancing Translational Sciences (NCATS), 2006).

The list shows a part of the results. These are further read-outs of the screen, such as a control signal, another cell line or another target. No call is given for them. Compounds called inactive in the main read-out are mostly missing here. Words in brackets tell the shape of the fitted curve; partial curves, single points and poor fits give uncertain potencies.

The assay in a line: IkB Signaling. The following applies: ABC-DLBCL IkBa-CBG/CBR dual luciferase ratio (green luciferase fused to IkBa over red control in OCI-Ly3 lymphoma cells), 4 h. In outline: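 Luminescence ratio of IκBα-fused green versus native red beetle luciferase in OCI-Ly3 cells, 4 h post-doxycycline with compound; red signal alone, scaled from basal (0%) to zero light (-100%), flagged nonspecific or cytotoxic effects.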
Where [1] appears, read: measured here: control luc red channel unless noted.

On to `Cc1ccc(/C=C/c2nc3ccccc3n2S(=O)(=O)c2ccc(Br)cc2)cc1`, for which the AC50 under setting [1] is 0.316 µM [falling, partial curve].

As to `CC(=O)N1CCc2c(sc3c2c(=O)n(-c2ccccc2)c(=O)n3Cc2cccc(C(F)(F)F)c2)C1`, under setting [1], the AC50 is 31.6 µM [falling, partial curve].

Regarding `Cc1sc2ncnc(Sc3nnnn3-c3ccccc3)c2c1C`, the AC50 under setting [1] was 12.6 µM [falling, partial curve].

Consider `COc1cccc(N=C2SC(C(=O)Nc3cccc(Cl)c3)CC(=O)N2C)c1` (stereo not given), for which the AC50 under setting [1] was 25.1 µM [falling, partial curve].

As to `Cc1cccc(-n2c(=O)[nH]c3c(C(N)=O)nc(-c4ccccc4Cl)nc32)c1`, the AC50 under setting [1] is 7.94 µM [falling, partial curve].

For the compound `Cc1cccc(N2CCN(C(=O)CCCn3ncn4c(cc5occc54)c3=O)CC2)c1C`, the AC50 under setting [1] is 25.1 µM [falling, partial curve].

Turning to `CCOc1cc(CNCCSc2nnnn2C)cc(Cl)c1OCc1ccc(Cl)cc1`, the AC50 under setting [1] was 15.8 µM [falling, partial curve].

Take `O=C(NCC(c1cccnc1)N1CCc2ccccc2C1)C(=O)Nc1cccc(Cl)c1` (stereo not given): under setting [1], the AC50 was 0.0794 µM [rising, full curve].

Take `COc1ccc(-c2cc(C(=O)NCCc3ccccc3)c3c(-c4ccccc4)[nH]nc3n2)cc1`: the AC50 under setting [1] was 3.98 µM [falling, full curve].

Take `Cc1ccc(Nc2nc3nonc3[nH]c2=O)cc1C`: the AC50 under setting [1] was 12.6 µM [falling, partial curve].

Regarding `COc1ccc(Br)cc1C1CC(=O)N2CN(Cc3ccccc3)CSC2=C1C#N` (stereo not given), the AC50 under setting [1] was 10 µM [falling, partial curve].

Take `O=C(Cn1ncc2c(=O)oc3ccccc3c21)NCC1COc2ccccc2O1` (stereo not given): the AC50 under setting [1] is 3.16 µM [falling, partial curve].

Take `COc1ccc(-c2nnc3sc(-c4ccco4)nn23)cc1OC`: under setting [1], the AC50 is 39.8 µM [rising, single point] [measured here: IkB-luc green channel].

Turning to `O=C(CSC1=Nc2ccccc2N=C(c2ccc(F)cc2)C1)NCc1ccc(Cl)cc1`, the AC50 under setting [1] was 10 µM [falling, partial curve].

Take `Cc1cc(S(=O)(=O)NCC(c2ccc(N(C)C)cc2)N2CCOCC2)ccc1F` (stereo not given): the AC50 under setting [1] is 15.8 µM [falling, partial curve, poor fit].

Turning to `CCn1nc(C)c2c(-c3ccccc3)cc(=O)n(C(C)C(=O)NCc3ccc(C)cc3)c21` (stereo not given), the AC50 under setting [1] is 3.98 µM [falling, single point].

For `CC(=O)c1ccc(NC(=O)c2nc3ccccc3n(C)c2=O)cc1`, under setting [1], the AC50 was 3.98 µM [rising, single point].

Consider `Cc1ccc(CN(C(=O)COc2ccc(Cl)cc2Cl)C2CCS(=O)(=O)C2)o1` (stereo not given), for which the AC50 under setting [1] was 15.8 µM [falling, partial curve].

On to `O=c1cnc2cncnc2n1Cc1ccc(F)cc1`, for which the AC50 under setting [1] is 5.01 µM [rising, partial curve] [measured here: IkB-luc green channel].

In the case of `CC(C)(C)c1ccccc1OCCCCCNCCO`, the AC50 under setting [1] was 12.6 µM [falling, partial curve].

For the compound `Cc1ccc(C)c(Nc2nc3nonc3nc2Nc2cccc(C)c2C)c1`, the half-maximal activity concentration (AC50) under setting [1] was 7.94 µM [falling, full curve].

As for `O=C(C1CCN(S(=O)(=O)Cc2ccccc2)CC1)N1CCN(c2ccccc2F)CC1`, under setting [1], the AC50 is 39.8 µM [falling, single point].

As to `Cc1cccc(Cn2cc(C(=O)Nc3ccc(S(N)(=O)=O)cc3)ccc2=O)c1`, the AC50 under setting [1] is 3.16 µM [rising, single point].

On to `CCOC(=O)c1[nH]c(C)c(C(=O)Nc2ccc(Cl)cc2)c1C`, for which the AC50 is 5.01 µM [rising, full curve] (measured here: IkB-luc green channel) and 10 µM [rising, partial curve] (measured here: control luc red channel).

With `COc1cc2nc(Nc3ccc(F)cc3)nc(N)c2cc1OC`, under setting [1], the AC50 was 15.8 µM [falling, partial curve].

`COC(=O)c1ccc(Cn2nnc3sc4c(c3c2=O)CCCC4)cc1`: the AC50 under setting [1] was 3.16 µM [falling, partial curve].

For the compound `CCOC(=O)c1cccc(NC(=O)C(Cc2ccccc2)NS(=O)(=O)c2cccc3nsnc23)c1` (stereo not given), the AC50 under setting [1] was 12.6 µM [falling, partial curve].

Regarding `C/C=C/C=C/C=O`, the AC50 under setting [1] was 12.6 µM [rising, full curve, poor fit] [measured here: IkB-luc green channel].

For the compound `COc1ccc(N(C(=O)COc2ccccc2OC)S(=O)(=O)c2ccc(Cl)cc2)cc1`, the AC50 under setting [1] is 20 µM [falling, partial curve].

As for `O=C(c1ccccc1)n1nc(-c2ccco2)nc1NCc1ccccc1Cl`, the AC50 under setting [1] was 10 µM [falling, partial curve].

As to `c1c2c(cc3sc(N4CCCCC4)nc13)OCO2`, the AC50 under setting [1] was 3.98 µM [falling, partial curve].

As for `Cc1nc2sc(C(c3cccs3)N3CCN(C(=O)c4ccco4)CC3)c(O)n2n1` (stereo not given), under setting [1], the AC50 is 12.6 µM [rising, single point] [measured here: IkB-luc green channel].

`O=C(Nc1cccc(C(F)(F)F)c1)Nc1nnc(N2CCCCC2)s1`: the AC50 under setting [1] is 12.6 µM [falling, partial curve].

`COc1ccc(S(=O)(=O)Nc2cccc(-c3ccc(N4CCCC4)nn3)c2)cc1OC`: under setting [1], the AC50 was 10 µM [falling, partial curve, poor fit].

Consider `N#Cc1c(Nc2cccc(F)c2)sc(C(=O)c2ccc(Cl)cc2)c1N`, for which the AC50 under setting [1] was 10 µM [falling, partial curve].

In the case of `COc1ccc(-c2nc3sc(CCNS(=O)(=O)c4ccc(F)c(C)c4)c(C)n3n2)cc1`, the AC50 under setting [1] was 20 µM [falling, partial curve].

As for `COc1ccccc1CNC(=O)CN1C(=O)CCn2nc(-c3ccccc3)cc21`, under setting [1], the AC50 is 6.31 µM [falling, partial curve, poor fit].

With `COc1ccc(OCCSc2nc3ccccc3n2CC(=O)N2CCOCC2)cc1`, the AC50 under setting [1] is 15.8 µM [falling, single point].

For the compound `CCOc1ccc(CNC(=O)C2CCN(C(=O)c3sccc3-n3cccc3)CC2)cc1`, under setting [1], the AC50 was 39.8 µM [falling, single point].
